Assay in all cases: EMSA
The target of one data set is FOXP3-ΔN (human) (UniProt Q9BZS1). The following applies: 12 mM HEPES pH 7.5, 100 mM NaCl, 1 mM DTT, 1 mM EDTA, 12% glycerol, 20 µg/ml poly(dI)-poly(dC), room temperature 20 min, protein translated in vitro, residues 182-431, label: 32P 5' end.
The test system of a further data set is Foxp1-ΔN (mouse). The note with it: 12 mM HEPES pH 7.5, 100 mM NaCl, 1 mM DTT, 1 mM EDTA, 12% glycerol, 20 µg/ml poly(dI)-poly(dC), room temperature 20 min, protein translated in vitro, label: 32P 5' end.
Data set [1] has as its target Foxp1A full length (mouse) (UniProt P58462). The note with it: 12 mM HEPES pH 7.5, 100 mM NaCl, 1 mM DTT, 1 mM EDTA, 12% glycerol, 20 µg/ml poly(dI)-poly(dC), room temperature 20 min, protein translated in vitro, protein details: HA, label: 32P 5' end.
In another data set the target is FOXP3 ΔN121 (human) (UniProt Q9BZS1). The note with it: legend: A'(A1-A1), text: spacing-optimized A'; 12 mM HEPES pH 7.5, 100 mM NaCl, 1 mM DTT, 1 mM EDTA, 12% glycerol, 20 µg/ml poly(dI)-poly(dC), room temperature 20 min; protein translated in vitro; residues 122-431; label: 32P 5' end.
The target of another data set is FOXP3-ΔN C204S (human) (UniProt Q9BZS1). The following applies: 12 mM HEPES pH 7.5, 100 mM NaCl, 1 mM DTT, 1 mM EDTA, 12% glycerol, 20 µg/ml poly(dI)-poly(dC), room temperature 20 min; protein translated in vitro; residues 182-431; label: 32P 5' end.
The target of a further data set is FOXP3-ΔN ΔFKH (human) (UniProt Q9BZS1). The following applies: 12 mM HEPES pH 7.5, 100 mM NaCl, 1 mM DTT, 1 mM EDTA, 12% glycerol, 20 µg/ml poly(dI)-poly(dC), room temperature 20 min; protein translated in vitro; label: 32P 5' end.

Protein sequences, listed by entry. Tags and fused reporters are not part of them. Residues count along the entry.
UniProt Q9BZS1, 182-431, stated change not applied: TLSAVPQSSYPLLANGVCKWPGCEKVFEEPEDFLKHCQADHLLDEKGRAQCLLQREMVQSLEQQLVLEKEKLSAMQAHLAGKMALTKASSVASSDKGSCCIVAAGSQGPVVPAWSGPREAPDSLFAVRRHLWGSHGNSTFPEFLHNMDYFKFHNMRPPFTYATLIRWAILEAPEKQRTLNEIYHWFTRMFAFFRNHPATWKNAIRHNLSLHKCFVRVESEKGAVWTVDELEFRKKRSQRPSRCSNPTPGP
UniProt Q9BZS1, 122-431, stated change not applied: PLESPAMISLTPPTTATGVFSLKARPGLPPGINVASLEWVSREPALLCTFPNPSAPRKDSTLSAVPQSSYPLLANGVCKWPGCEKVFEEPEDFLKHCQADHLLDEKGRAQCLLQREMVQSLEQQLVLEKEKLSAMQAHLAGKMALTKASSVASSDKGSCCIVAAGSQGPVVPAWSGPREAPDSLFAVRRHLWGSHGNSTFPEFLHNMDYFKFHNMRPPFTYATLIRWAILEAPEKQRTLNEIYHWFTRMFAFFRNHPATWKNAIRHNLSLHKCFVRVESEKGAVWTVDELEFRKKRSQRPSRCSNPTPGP
UniProt Q9BZS1, 182-431 C204S: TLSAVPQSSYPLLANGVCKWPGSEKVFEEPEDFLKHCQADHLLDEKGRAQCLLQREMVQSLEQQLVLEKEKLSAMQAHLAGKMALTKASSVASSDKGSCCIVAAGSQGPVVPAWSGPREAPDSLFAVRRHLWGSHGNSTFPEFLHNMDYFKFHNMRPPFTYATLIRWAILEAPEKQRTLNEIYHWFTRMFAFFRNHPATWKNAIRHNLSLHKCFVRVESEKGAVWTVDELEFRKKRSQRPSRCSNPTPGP
UniProt Q9BZS1, 182-336, stated change not applied: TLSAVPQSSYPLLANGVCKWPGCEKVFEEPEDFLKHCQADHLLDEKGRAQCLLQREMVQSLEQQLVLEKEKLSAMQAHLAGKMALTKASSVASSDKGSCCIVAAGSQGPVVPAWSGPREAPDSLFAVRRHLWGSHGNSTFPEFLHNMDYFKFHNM
UniProt P58462, whole entry: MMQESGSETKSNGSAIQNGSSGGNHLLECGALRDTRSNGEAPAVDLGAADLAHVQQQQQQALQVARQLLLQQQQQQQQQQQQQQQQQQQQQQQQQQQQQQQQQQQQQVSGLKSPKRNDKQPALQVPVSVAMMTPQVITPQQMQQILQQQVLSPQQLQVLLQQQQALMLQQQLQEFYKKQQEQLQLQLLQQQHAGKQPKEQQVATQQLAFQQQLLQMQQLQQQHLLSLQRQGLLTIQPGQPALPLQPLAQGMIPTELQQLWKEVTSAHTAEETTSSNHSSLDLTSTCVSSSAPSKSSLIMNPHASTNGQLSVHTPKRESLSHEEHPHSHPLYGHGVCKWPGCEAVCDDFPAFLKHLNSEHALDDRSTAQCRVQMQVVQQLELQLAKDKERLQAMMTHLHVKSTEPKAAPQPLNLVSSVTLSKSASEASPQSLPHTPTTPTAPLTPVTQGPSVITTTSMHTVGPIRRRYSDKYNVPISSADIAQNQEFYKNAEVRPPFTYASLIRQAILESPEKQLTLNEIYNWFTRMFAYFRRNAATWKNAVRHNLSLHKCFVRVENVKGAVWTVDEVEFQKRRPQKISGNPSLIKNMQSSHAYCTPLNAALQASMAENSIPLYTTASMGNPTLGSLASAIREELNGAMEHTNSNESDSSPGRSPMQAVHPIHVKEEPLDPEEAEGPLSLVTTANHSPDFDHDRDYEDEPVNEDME

For some assays here: The comparison behind a weaker result is the experiment's own reference, which may not be listed here. Construct, isoform or probe ends are uncertain for at least one entry. For some assays here: Negatives hold for the conditions tested. For some assays here: At least one verdict was read from the data and is not stated in words by the source. For some assays here: The direction of at least one scale is not stated here.

Consider “CAAGACAAACAAGACAACACAAACAA (double strand) [A' (AC)]”, for which the binding result (in the data set with FOXP3-ΔN (human) (below AT); in the data set with Foxp1-ΔN (mouse); in data set [1]) was “binds more weakly” each time.

For the sequence “CAAGACAAATAAGACAACACAAATAA (double strand) [A'' (A2-A2)]”, the binding result (in the data set with Foxp1-ΔN (mouse); in data set [1]) was “binds more weakly” in each case.

On to “CAAGATAAACAAGACAACATAAACAA (double strand) [A' (AT)]”, for which the binding result (in the data set with Foxp1-ΔN (mouse); in data set [1]) was “binds more weakly” throughout.

In the case of “CAAGGCAAACAAGACAACGCAAACAA (double strand) [A' (GC)]”, the binding result (in the data set with Foxp1-ΔN (mouse) (very weak); in data set [1] (very weak)) was “binds more weakly” throughout.

As to “CAAGGTAAACAAGACAACACAAATAA (double strand) [A (A1-A2)]”, the binding result with FOXP3-ΔN (human) (weaker than Foxp1, less than half of A') is recorded as “binds more weakly”; in the data set with Foxp1-ΔN (mouse) (more than full-length Foxp1) it was “binds”.

Take “CAAGGTAAACAAGACAACACGATTGTAAACAAGTC (double strand) [A' (35 bp), 20-bp spacing]”: the binding result with Foxp1-ΔN (mouse) (somewhat preferred over 14-bp spacing) is “binds”.

“CAAGGTAAACAAGACAACGTAAACAA (double strand) [A' (A1-A1)]”: the binding result with FOXP3 ΔN121 (human) is given as “binds more weakly”; in the data set with Foxp1-ΔN (mouse) (enhanced versus A), “binds”; in data set [1] it was “binds”.

The sequence “CAAGGTAAACAAGACAACGTAAACAAGTC (double strand) [A' (29 bp), 14-bp spacing]” came in with a binding signal (fold (reference)) with FOXP3-ΔN (human) of 1. In addition, in the data set with Foxp1-ΔN (mouse), the binding result is listed as “binds”.

With “CAAGGTAAACAAGAGTAAACAAGTC (double strand) [A' (25 bp), 10-bp spacing]”, the binding result in the data set with FOXP3-ΔN C204S (human) is reported as “binds”; with FOXP3-ΔN ΔFKH (human) it was “no binding”; in the data set on Foxp1-ΔN (mouse) it was “binds more weakly”.

(Values after paper PMC2779587, “Domain Requirements and Sequence Specificity of DNA Binding for the Forkhead Transcription Factor FOXP3”.)
